Test results reported in patent US20250059278A1.
Results are given in words; binding and its absence hold for the method and conditions named. Binding can be weak; no strength is given.

Target: monkey MSLN-his (Kaika Biotech, MSL-CM180) (monkey (cyno))
Assay: ELISA screening on coated MSLN-his

binding: binds
B1: MSLN single-domain antibody 3C6 (VHH)
VHH: EVQLVESGGGLVQAGESLRLSCAVSGNIGSIRHMGWHRQDPGKERELVATITTVGTTYYANFVKGRFTISRDNAKNTVYLQMNSLKPEDTGVYYCRATAHPTDYWGQGTQVTVSS
